PubChem BioAssay AID602196, INSERM – 2012
In all, the deposit lists about 23,000 reagents; below is an unselected part. Over the whole deposit, 455 (2%) were called active. 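Active includes both protection and sensitisation; some change values fall well beyond the stated -50 to +50 range.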 Not all columns of the deposit are shown. The record does not give: the amount of reagent.

Assay: 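Genes whose knock-down alters cisplatin killing of lung cancer cells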
Cell system: human A549 lung cancer cells
Reagents: siRNA pair against human genes
Duration: 48 h transfection before cisplatin; time from cisplatin to read-out not stated
Conditions: cisplatin at a dose killing half of control-siRNA cells; exact dose and duration not given
Detection: 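Cisplatin cell death as a shift from the 50% death seen with control siRNA; siRNAs toxic or growth-blocking alone scored 0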
Direction: two-siRNA summed score (-2 to +2): higher = both siRNAs protect from cisplatin killing; -2 means both sensitise
Rule for the call: 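siRNAs harmful alone (LDH or WST-1) get 0; others get +1 for less and -1 for more cisplatin killing; genes are active when the two siRNAs give the same sign, summing to ±2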
Meaning of the calls: active = both siRNAs shift cisplatin killing the same way; inactive = no consistent shift, or siRNA harmful alone

The first 2 entries, to show the layout:
PARP9 → two-siRNA summed score (-2 to +2) = -1; Outcome = inactive
LOC147294 → two-siRNA summed score (-2 to +2) = 0; Outcome = inactive

Results, from the start:
PARP9 → two-siRNA summed score (-2 to +2) = -1; Outcome = inactive
LOC147294 → two-siRNA summed score (-2 to +2) = 0; Outcome = inactive
EME2 → two-siRNA summed score (-2 to +2) = 0; Outcome = inactive
LOC146177 → two-siRNA summed score (-2 to +2) = 0; Outcome = inactive
LOC151507 → two-siRNA summed score (-2 to +2) = 0; Outcome = inactive
LIN28B → two-siRNA summed score (-2 to +2) = 0; Outcome = inactive
C1QL3 → two-siRNA summed score (-2 to +2) = 2; Outcome = active
LOC403312 → two-siRNA summed score (-2 to +2) = 0; Outcome = inactive
IGF2BP2 → two-siRNA summed score (-2 to +2) = 0; Outcome = inactive
LOC440988 → two-siRNA summed score (-2 to +2) = 0; Outcome = inactive
LPCAT1 → two-siRNA summed score (-2 to +2) = 0; Outcome = inactive
DOK3 → two-siRNA summed score (-2 to +2) = 0; Outcome = inactive
